About 170 (0.05%) of roughly 340,000 compounds were called active. Inconclusive means that the source gave no clear call. Such entries were picked first, then a sample of the others. Calls follow the shape of the dose curve; as a rule, active = well fitted inhibition curve with a large enough effect in the signal ratio, with a control signal flat (not every such curve was filed as active); inconclusive = small, poorly fitted or top-dose-only effect, or effect the other way, or a change in a side signal; inactive = flat fitted curve, though single readings scatter; the % refers to the signal ratio. A potency beside an inconclusive call is a rough fit, not a confirmed value.
experiment: qHTS Assay to Find Inhibitors of Chronic Active B-Cell Receptor Signaling; conditions: ABC-DLBCL IkBa-CBG/CBR reporter, luminescence ratio (green luciferase fused to IkBa over red control in TMD8 lymphoma cells), 4 h; activity change, negative = inhibition: at 46.1 µM (top of the series);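 as to activity change, negative = inhibition: plate controls were basal doxycycline-induced cells for no effect and cells given 10 µM MG132 for full effect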
Summary of the method: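 Cell line TMD8 (human ABC DLBCL), stably expressing tet-inducible CBG68-IkBa fusion and CBR; IMDM/0.5% FBS; cpd up to 46 uM; dox induction, 4 h, 37C/5% CO2; dual luminescence; green/red ratio; MG132 control.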
Potency is read from the fitted curve at half-maximal effect.

SMILES	activity change, negative = inhibition	Potency
O=C(COc1ccccc1[N+](=O)[O-])Nc1cccnc1	inactive: 7.06%	
COc1ccc(N2CCN(S(=O)(=O)c3ccc(Br)s3)CC2)cc1	inactive: -4.25%	
CCN(CC)CCCNc1cc(C)nc2cc(-c3cccs3)nn12	inactive: -7.2%	
CCOc1ccc(CNC(=S)N/N=C\c2ccc([N+](=O)[O-])cc2)cc1		inconclusive: 20.6 µM [falling, single point]
Cc1no[n+]([O-])c1COc1ccccc1/C=C1\NC(=S)NC1=O		inconclusive: 20.6 µM [falling, partial curve, poor fit]
COCCNC(=O)c1cc(-c2cccs2)on1		inconclusive: 16.4 µM [falling, single point]
COc1cccc(NC(=O)c2sc(NC(=O)c3ccncc3)nc2C)c1		inconclusive: 35.5 µM [rising, single point]
Cn1nnnc1Sc1ncnc2scc(-c3ccc([N+](=O)[O-])cc3)c12	inconclusive: -25.2%	
COc1ccc(-c2cc(C(=O)NCCCn3ccnc3)no2)cc1OC		inconclusive: 20.6 µM [falling, partial curve, poor fit]
COCc1ccc(O)c2ncccc12		inconclusive: 2.91 µM [falling, partial curve, poor fit]
O=C(Nc1cc([N+](=O)[O-])ccc1O)c1cccc(NC(=O)c2ccco2)c1		inconclusive: 35.5 µM [falling, partial curve, poor fit]
CC(c1ccccn1)N(C)C(=O)c1ccc2nc(Cc3ccccc3F)oc2c1 (stereo unspecified)	inconclusive: 6.93%	
Cc1cccc(NC(=O)CNC(=O)COc2ccc(-c3ccc(C#N)cc3)cc2)c1C	inconclusive: 1.26%	
CC(=O)c1ccc(Nc2nc3ccccc3nc2NS(=O)(=O)c2cccs2)cc1	inconclusive: 8.56%	
Fc1ccccc1N1CCN(C2CCCN(Cc3ccccc3C(F)(F)F)C2)CC1 (stereo unspecified)	inactive: -2.07%	
FC(F)(F)c1cccc(N2CCN(C(=S)NC3CCCCC3)CC2)c1	inconclusive: -2.71%	
CCOC(=O)Cc1csc(NC(=O)CCCCCN2C(=O)c3ccccc3C2=O)n1	inconclusive: 12.8%	
COc1ccccc1C(C#N)c1cccc(Cl)n1 (stereo unspecified)	inconclusive: 14.7%	
COC(C(=O)N/N=C(\C)CC(=O)Nc1ccc(N(C)C)cc1)c1ccccc1 (stereo unspecified)	inactive: 2.26%	
O=C(Nc1ccc2nc(-c3ccco3)[nH]c2c1)c1cccs1		inconclusive: 0.291 µM [rising, full curve, poor fit]
CC(CC(=O)N1CCN(c2ccccc2)CC1)S(=O)(=O)c1ccc2c(c1)NC(=O)CO2 (stereo unspecified)	inconclusive: -7.91%	

3 of these compounds in another layout.
SMILES | activity change, negative = inhibition | Potency
COc1ccc(-c2cc(C(=O)NCCCn3ccnc3)no2)cc1OC |  | inconclusive: 20.6 µM [falling, partial curve, poor fit]
COCc1ccc(O)c2ncccc12 |  | inconclusive: 2.91 µM [falling, partial curve, poor fit]
CC(=O)c1ccc(Nc2nc3ccccc3nc2NS(=O)(=O)c2cccs2)cc1 | inconclusive: 8.56% | 

Further records

SMILES	activity change, negative = inhibition	Potency
O=S(=O)(Nc1ccc(Br)cc1)c1cccc(NC(=S)NCCN2CCOCC2)c1	inconclusive: 1.81%	
Cc1cc(C)c2nc(N3C(=O)C(O)=C(C(=O)c4ccco4)C3c3cccc(O)c3)sc2c1 (stereo unspecified)	inconclusive: 13.5%	
COc1ccc(-c2nc(NCCCN(C)C)c3ccccc3n2)cc1	inactive: -3.27%	
CCc1cccc(CC)c1NC(=S)NCCc1c(C)[nH]c2ccc(C)cc12	inconclusive: 1.38%	
COc1ccc(C(=O)CCC(=O)Nc2ccc(C)c(Cl)c2)cc1	inactive: 7.9%	
C/C(=N\NC(=O)c1cccc(S(=O)(=O)Nc2ccccc2Cl)c1)c1ccc(-n2ccnc2)cc1	inactive: 4.93%	
CSc1nc2cc(Oc3cccc(Cl)c3Cl)c(Cl)cc2[nH]1		inconclusive: 35.5 µM [falling, single point]
NCCNC[C@@H]1COC2(CCCCCCCCCCC2)O1		inconclusive: 12.6 µM [falling, partial curve, poor fit]
CCN1C(=O)CC(N2CCOCC2)C1=O (stereo unspecified)	inconclusive: 13%	
Cc1ccc(NC(=O)CSc2ccc(S(=O)(=O)N3CCCC3)cn2)cc1F	inconclusive: 0.39%	
CCCCc1c(C)nc2cc(-c3ccco3)[nH]n2c1=O	inconclusive: 8.25%	
CCOC(=O)c1ccc(NC(=S)NCCc2ccc(F)cc2)cc1		inconclusive: 1 µM [falling, full curve]
Cc1ccccc1NC(=O)/C(C#N)=C\c1ccsc1	inactive: -17.7%	
CN(Cc1ccco1)S(=O)(=O)c1nnc(NC(=O)c2ccccc2Cl)s1	inconclusive: 12.8%	
CC(=O)Nc1ccc(Sc2ncccc2C(=O)Nc2ccc(F)cc2)cn1		inconclusive: 12.6 µM [falling, partial curve, poor fit]
Cc1cc(C)c2c(n1)SCC(=O)N2CC(=O)Nc1cccc(Cl)c1	inactive: 6.19%	
O=C(CN1C(=O)C2CC=CCC2C1=O)Nc1nnc(SCc2c(Cl)cccc2Cl)s1 (stereo unspecified)		inconclusive: 7.31 µM [rising, partial curve, poor fit]
COC(=O)c1cn(NC(=O)c2cc([N+](=O)[O-])ccc2F)c(=O)c2ccccc12	inactive: -2.3%	
CC12CC(c3ccccc3O1)N(C(=O)c1ccco1)C(=S)N2c1ccc(F)cc1 (stereo unspecified)	inconclusive: -12.5%	
COc1ccc(OC)c2c1C(=O)c1ccccc1C2=O	inactive: -5.5%	
O=C(CCc1ccccc1)NC1CCS(=O)(=O)C1 (stereo unspecified)	inconclusive: 4.16%	

SMILES	activity change, negative = inhibition	Potency
COc1ccc(CSc2nnc(C)n2N)cc1Br	inconclusive: 0.0077%	
O=C(CNc1ccc(F)cc1Cl)Nc1cccc(S(=O)(=O)N2CCCCC2)c1	inconclusive: -1.39%	
COc1ccccc1C(=O)Nc1ccc2c(c1)nc(CCNC(=O)c1ccccc1)n2C		inconclusive: 11.2 µM [falling, partial curve]
COCCN1CCn2c(nc3cc(Nc4nnc(C)c5ccccc45)ccc32)C1		inconclusive: 14.1 µM [falling, partial curve, poor fit]
COc1ccc(N2CCN(C(=O)CSc3nnc4n3C(C)(C)Cc3ccccc3-4)CC2)cc1	inactive: 7.65%	
O=C(Cc1cccs1)Nc1nnc(-c2ccccc2)s1	inactive: -1.37%	
O=C(CSc1nnc(-c2cccs2)n1-c1ccccc1)N1CCCc2ccccc21		inconclusive: 7.31 µM [rising, partial curve]
CCc1cnc2c(c1SCC(=O)Nc1ccc(C(=O)OC)cc1)c(=O)n(C)c(=O)n2C	inactive: 12.3%	
CCCCN(CC)C(=O)Cc1ccc(Br)cc1	inconclusive: 0.985%	
CN(c1ccccc1)c1ccc(/C=C/[N+](=O)[O-])cc1	inconclusive: 19.8%	
C=CCn1c(COc2cccc(C)c2)nnc1SCC(=O)NC(=O)NCc1ccco1	inactive: -18.5%	
CSc1nsc(/C=C/Nc2ccc(C(=O)O)cc2)c1C#N	inconclusive: -5.32%	
C=CCOCC(O)Cn1c(N2CCCC2)nc2c1c(=O)[nH]c(=O)n2C (stereo unspecified)	inactive: -0.781%	
COc1ccc(C(=O)Nc2ccc3oc(-c4cccnc4)nc3c2)cc1OC	inactive: -4.56%	
O=C(/C=C/c1cccc([N+](=O)[O-])c1)N1CCN(c2ccccn2)CC1	inactive: -2.85%	
O=[N+]([O-])c1ccc(C2=NN(c3ccccc3)C(c3ccco3)C2)cc1 (stereo unspecified)	inconclusive: 16.2%	
O=c1nc2sc3ccccc3n2c(=O)n1-c1ccc(Cl)cc1		inconclusive: 11.2 µM [falling, partial curve]
CCn1c2ccccc2c2cc([N+](=O)[O-])ccc21	inactive: 6.19%	
CCCCC(=O)Nc1ccc(Br)cn1	inconclusive: -3.7%	
COc1ccc2nc(SCC(=O)Nc3ccccc3C)[nH]c2c1	inconclusive: -27.3%	
CCc1c(C)sc2nc(SCC(=O)Nc3cc(C)on3)n(CCOC)c(=O)c12	inconclusive: -0.151%	

SMILES	activity change, negative = inhibition	Potency
C[C@H](CO)N1C[C@H](C)[C@@H](CN(C)C(=O)Nc2ccc3c(c2)OCO3)Oc2c(NC(=O)Nc3ccc(C(F)(F)F)cc3)cccc2C1=O	inconclusive: -1.63%	
O=C(Nc1ccncc1)Nc1ccccc1Cl		inconclusive: 17.8 µM [falling, single point]
CCCOc1ccc(-c2c(C(=O)N/N=C/c3ccc(C)o3)nnn2-c2nonc2N)cc1	inconclusive: -2.03%	
CC(=O)c1ccc(N2CCN(C(=O)c3cccs3)C(C)C2)c(F)c1 (stereo unspecified)	inactive: -0.413%	
COc1ccc(CC(=O)Oc2cc(C)ccc2C)cc1	inconclusive: 6.49%	
O=C(CN1C(=O)NC2NC(=O)NC21)N/N=C/c1ccccc1O (stereo unspecified)	inactive: -0.0174%	
COc1cc(OC)cc(C(=O)Oc2ccc(/C=N/Nc3nc4ccccc4s3)cc2OC)c1	inconclusive: -0.878%	
CC(C)Sc1nnc(NC(=O)c2ccco2)s1		inconclusive: 10 µM [falling, partial curve]
O=C(CC(=O)Nc1ccccc1F)Nc1ccccc1F	inconclusive: 2.66%	
Cc1cccc(-c2noc(CN(C)S(=O)(=O)c3cc(Cl)ccc3Cl)n2)c1		inconclusive: 5.17 µM [falling, partial curve]
COc1ccc(/C=C2\SC(=S)N(CCC(=O)Nc3ccc(C(=O)O)cc3)C2=O)cc1OC		inconclusive: 17.8 µM [falling, single point]
CC(=O)NC1(c2nnnn2CCOC(=O)Nc2ccc(Cl)cc2)CCCCC1	inconclusive: 3.82%	
CC(C)COc1nc2ccccc2c(=O)n1OCC(=O)O	inconclusive: 1.16%	
O=C(NCc1ccc(Cl)cc1)C1CCCCN1S(=O)(=O)c1ccccc1 (stereo unspecified)	inconclusive: -0.023%	
COc1cc(C2C3=C(CC(C)(C)CC3=O)N(C)C3=C2C(=O)CC(C)(C)C3)ccc1O	inconclusive: 2.46%	
COc1ccc(C(=O)Nc2cccnc2Sc2ccc(Cl)cc2)cc1		inconclusive: 6.31 µM [falling, full curve]
O=C(NC(=S)Nc1cccc2c(O)cccc12)c1ccco1	inconclusive: -17.4%	
CC(=O)c1ccc(-n2c(=O)[nH]c(=O)c3c(N)c(C(=O)c4ccc(Cl)cc4)sc32)cc1	inconclusive: 18.1%	

3 entries drawn at random from the list so far, as already listed:
SMILES	activity change, negative = inhibition	Potency
COc1ccc(C(=O)Nc2cccnc2Sc2ccc(Cl)cc2)cc1		inconclusive: 6.31 µM [falling, full curve]
O=C(CC(=O)Nc1ccccc1F)Nc1ccccc1F	inconclusive: 2.66%	
COc1ccc(/C=C2\SC(=S)N(CCC(=O)Nc3ccc(C(=O)O)cc3)C2=O)cc1OC		inconclusive: 17.8 µM [falling, single point]

From PubChem BioAssay AID493014 (National Center for Advancing Translational Sciences (NCATS), 2011)
